Measurements as given in the supplement of paper PMC6411743.
± gives the standard deviation of the averaged measurements. The entries are a selection whose mix differs from that of the whole data set.

Chains of the proteins cited; added tags and fusions are not shown. Lines headed by an entry give the natural chain unless they say otherwise; changes in a name come on top.
UniProt P62879, whole entry: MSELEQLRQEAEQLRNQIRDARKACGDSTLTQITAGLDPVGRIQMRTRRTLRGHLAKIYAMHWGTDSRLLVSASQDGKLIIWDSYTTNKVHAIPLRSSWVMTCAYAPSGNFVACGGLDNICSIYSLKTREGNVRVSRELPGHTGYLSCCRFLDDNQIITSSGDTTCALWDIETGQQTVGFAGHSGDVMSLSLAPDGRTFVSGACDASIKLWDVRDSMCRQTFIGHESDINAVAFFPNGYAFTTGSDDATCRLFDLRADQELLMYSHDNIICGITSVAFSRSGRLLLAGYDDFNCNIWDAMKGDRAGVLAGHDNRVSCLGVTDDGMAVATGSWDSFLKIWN
UniProt P78345: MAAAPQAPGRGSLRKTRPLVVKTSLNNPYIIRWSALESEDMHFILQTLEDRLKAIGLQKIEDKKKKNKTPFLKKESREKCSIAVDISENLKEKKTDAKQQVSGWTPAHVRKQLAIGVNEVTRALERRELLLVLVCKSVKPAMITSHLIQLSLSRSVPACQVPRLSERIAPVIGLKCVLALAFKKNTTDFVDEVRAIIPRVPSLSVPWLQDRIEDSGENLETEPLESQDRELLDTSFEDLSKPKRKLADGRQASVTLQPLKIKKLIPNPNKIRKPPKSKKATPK
UniProt Q00688: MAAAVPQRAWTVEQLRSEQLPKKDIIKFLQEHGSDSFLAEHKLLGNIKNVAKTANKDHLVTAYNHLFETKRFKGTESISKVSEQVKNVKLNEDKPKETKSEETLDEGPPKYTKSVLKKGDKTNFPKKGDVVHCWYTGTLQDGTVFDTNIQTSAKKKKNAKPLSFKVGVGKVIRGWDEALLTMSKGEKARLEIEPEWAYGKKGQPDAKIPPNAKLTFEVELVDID
UniProt P62328: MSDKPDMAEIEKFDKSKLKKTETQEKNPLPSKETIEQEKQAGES
UniProt Q00535, whole entry, looked up: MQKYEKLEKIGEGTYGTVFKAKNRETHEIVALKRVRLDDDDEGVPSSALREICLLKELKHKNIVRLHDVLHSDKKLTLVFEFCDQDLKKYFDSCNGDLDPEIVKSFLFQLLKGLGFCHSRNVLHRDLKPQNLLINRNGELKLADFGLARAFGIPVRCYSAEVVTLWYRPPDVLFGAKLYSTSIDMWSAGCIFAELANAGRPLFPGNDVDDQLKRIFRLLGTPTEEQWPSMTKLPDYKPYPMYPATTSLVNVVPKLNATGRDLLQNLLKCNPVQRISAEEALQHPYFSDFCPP
UniProt Q04727: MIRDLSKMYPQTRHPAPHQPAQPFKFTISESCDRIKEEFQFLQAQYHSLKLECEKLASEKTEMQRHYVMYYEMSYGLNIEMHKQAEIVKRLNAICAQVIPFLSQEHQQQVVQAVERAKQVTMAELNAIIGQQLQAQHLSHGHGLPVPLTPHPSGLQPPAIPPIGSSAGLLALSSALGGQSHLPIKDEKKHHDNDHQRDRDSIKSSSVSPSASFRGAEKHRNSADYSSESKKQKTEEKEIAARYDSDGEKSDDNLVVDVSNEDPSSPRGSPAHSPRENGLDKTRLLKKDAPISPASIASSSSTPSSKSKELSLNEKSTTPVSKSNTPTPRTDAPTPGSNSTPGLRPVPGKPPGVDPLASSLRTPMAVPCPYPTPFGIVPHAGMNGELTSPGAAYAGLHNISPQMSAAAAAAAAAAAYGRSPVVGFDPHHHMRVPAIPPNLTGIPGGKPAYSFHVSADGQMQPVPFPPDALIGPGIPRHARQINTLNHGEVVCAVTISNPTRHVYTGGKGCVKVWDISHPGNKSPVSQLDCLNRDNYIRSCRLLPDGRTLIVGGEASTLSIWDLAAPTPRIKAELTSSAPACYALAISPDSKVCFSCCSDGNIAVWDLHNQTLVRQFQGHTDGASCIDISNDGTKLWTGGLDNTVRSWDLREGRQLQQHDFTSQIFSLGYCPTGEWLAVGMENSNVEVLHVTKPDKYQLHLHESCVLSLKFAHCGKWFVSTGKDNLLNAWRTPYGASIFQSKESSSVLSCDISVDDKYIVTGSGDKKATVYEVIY
UniProt P60903, whole entry: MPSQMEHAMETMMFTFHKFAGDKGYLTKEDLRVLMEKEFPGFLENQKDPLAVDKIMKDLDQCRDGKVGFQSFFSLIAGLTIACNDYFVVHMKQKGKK
UniProt Q07954: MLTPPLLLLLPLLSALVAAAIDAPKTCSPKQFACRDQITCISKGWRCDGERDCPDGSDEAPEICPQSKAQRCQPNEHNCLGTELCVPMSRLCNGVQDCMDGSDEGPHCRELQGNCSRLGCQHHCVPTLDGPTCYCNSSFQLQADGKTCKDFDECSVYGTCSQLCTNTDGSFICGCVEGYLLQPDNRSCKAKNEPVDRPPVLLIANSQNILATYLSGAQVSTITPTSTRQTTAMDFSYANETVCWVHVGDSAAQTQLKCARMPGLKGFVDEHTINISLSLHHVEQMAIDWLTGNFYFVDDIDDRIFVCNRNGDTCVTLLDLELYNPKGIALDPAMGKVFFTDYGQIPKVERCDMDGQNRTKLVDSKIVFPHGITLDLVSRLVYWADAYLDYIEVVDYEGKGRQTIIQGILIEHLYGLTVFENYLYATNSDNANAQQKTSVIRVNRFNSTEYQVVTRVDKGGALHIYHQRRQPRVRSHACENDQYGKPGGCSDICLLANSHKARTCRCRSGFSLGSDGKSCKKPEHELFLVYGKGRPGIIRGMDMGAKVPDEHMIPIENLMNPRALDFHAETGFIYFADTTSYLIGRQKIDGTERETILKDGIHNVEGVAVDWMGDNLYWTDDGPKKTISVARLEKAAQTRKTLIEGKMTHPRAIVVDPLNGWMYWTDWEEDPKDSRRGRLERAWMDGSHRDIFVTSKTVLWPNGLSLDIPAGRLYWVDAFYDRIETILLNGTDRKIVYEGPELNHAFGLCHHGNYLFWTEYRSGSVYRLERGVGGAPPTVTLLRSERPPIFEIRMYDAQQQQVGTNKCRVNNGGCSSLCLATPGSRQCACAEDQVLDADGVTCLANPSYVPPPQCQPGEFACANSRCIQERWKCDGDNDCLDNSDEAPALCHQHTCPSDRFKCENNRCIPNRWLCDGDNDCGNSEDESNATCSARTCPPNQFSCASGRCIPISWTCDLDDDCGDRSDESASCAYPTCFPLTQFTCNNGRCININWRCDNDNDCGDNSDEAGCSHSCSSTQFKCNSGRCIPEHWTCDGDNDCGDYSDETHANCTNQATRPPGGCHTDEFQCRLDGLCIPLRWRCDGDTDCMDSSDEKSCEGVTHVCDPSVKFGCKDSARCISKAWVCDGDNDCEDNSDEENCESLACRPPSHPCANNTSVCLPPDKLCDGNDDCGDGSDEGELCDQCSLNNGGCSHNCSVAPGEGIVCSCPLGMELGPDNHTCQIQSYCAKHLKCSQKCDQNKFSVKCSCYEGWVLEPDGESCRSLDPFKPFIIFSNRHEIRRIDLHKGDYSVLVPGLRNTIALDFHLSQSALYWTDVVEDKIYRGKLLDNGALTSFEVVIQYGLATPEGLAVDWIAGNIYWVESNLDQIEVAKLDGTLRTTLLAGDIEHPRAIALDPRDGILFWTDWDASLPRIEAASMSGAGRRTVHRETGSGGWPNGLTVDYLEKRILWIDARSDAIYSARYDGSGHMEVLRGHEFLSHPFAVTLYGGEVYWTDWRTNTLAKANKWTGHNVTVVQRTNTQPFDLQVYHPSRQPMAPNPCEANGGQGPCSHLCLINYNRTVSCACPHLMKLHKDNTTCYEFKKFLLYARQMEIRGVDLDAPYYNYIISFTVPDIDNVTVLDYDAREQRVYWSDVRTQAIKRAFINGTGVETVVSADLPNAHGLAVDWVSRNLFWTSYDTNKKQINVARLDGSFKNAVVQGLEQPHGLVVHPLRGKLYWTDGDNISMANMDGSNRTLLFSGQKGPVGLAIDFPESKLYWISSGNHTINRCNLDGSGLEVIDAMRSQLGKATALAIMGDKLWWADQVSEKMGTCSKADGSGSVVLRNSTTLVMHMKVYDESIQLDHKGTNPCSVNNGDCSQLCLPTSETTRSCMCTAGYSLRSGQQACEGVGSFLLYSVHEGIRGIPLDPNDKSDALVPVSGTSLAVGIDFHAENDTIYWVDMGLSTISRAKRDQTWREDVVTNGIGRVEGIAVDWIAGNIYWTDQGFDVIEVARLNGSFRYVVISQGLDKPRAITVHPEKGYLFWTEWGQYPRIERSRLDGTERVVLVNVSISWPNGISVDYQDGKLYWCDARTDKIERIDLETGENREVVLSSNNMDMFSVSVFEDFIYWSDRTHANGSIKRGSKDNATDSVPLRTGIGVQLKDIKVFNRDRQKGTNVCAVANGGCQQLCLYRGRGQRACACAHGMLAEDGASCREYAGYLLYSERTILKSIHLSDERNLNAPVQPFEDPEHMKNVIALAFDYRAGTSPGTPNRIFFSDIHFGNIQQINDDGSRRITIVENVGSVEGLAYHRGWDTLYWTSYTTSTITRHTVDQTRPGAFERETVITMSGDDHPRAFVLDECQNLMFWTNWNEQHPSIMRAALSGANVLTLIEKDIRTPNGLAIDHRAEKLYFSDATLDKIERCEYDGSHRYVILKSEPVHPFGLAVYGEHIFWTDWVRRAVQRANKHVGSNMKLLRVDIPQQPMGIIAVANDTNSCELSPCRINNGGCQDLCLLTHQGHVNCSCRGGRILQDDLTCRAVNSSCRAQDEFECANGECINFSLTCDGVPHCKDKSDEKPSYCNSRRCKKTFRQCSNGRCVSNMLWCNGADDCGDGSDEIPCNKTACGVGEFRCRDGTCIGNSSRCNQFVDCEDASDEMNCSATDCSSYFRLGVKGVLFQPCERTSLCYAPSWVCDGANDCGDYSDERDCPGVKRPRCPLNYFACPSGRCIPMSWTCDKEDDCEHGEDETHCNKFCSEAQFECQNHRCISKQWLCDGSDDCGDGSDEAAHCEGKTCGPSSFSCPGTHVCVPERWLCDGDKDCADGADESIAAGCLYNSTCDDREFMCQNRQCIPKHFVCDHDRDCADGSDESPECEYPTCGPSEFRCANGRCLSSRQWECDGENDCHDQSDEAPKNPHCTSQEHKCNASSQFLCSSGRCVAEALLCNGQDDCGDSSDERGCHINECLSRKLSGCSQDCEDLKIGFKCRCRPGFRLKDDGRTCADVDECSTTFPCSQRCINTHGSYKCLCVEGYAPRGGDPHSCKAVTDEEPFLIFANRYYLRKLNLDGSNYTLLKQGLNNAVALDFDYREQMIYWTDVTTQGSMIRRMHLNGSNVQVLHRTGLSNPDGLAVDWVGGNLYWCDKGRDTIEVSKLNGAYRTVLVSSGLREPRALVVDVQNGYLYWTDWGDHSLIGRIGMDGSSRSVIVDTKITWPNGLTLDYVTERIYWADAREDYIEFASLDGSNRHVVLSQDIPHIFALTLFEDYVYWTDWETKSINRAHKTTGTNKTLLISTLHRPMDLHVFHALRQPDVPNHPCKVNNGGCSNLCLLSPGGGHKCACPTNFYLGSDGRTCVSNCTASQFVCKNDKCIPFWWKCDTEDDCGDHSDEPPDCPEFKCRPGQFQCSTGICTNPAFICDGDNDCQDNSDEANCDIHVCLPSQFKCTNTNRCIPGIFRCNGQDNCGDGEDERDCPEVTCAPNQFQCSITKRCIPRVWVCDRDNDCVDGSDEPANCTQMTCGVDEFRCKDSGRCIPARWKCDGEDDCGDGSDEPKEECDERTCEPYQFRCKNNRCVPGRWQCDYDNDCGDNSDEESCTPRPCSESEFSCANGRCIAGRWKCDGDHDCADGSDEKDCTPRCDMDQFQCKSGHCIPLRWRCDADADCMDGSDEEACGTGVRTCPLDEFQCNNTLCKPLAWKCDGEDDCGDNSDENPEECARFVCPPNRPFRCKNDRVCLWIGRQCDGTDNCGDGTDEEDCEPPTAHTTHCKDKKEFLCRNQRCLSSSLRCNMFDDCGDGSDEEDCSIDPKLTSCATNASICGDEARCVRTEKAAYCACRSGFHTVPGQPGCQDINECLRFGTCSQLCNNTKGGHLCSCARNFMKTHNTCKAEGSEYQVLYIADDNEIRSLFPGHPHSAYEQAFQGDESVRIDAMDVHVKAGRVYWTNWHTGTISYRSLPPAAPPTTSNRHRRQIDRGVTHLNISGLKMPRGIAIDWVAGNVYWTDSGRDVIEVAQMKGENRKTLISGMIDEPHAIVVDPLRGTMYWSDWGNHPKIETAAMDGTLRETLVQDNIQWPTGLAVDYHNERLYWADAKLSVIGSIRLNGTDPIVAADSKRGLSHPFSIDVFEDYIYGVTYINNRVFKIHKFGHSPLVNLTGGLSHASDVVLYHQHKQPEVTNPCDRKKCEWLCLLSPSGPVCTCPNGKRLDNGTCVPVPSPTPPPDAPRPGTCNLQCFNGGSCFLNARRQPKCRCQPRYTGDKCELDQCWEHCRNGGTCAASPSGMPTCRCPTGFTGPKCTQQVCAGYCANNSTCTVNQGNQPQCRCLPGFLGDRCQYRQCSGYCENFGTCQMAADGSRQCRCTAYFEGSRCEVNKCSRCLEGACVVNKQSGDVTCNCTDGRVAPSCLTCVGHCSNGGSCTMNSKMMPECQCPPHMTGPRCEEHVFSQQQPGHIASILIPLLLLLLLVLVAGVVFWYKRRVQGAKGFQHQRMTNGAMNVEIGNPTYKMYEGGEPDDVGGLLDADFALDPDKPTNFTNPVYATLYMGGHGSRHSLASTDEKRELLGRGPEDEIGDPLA

Compound: Nc1ncnc2c1ncn2[C@@H]1O[C@H](COP(=O)(O)OP(=O)(O)NP(=O)(O)O)[C@@H](O)[C@H]1O [adenylyl imidodiphosphate]
Experiment: NP40-soluble protein abundance relative to vehicle (solubility fold change) (ratio); higher = more soluble protein in presence of AMP-PNP
Procedure, shortened: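 Values are fold changes against the detergent-processed vehicle, based on vsn-normalised intensities. Jurkat crude lysate was treated at eight concentrations from 0.1 to 10 mM (10 min at room temperature, then 3 min at 37 °C), solubilised with 0.8% NP40 and benzonase, ultracentrifuged and analysed by TMT-labelled LC-MS/MS over three independent experiments.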

Target	NP40-soluble protein abundance (concentration: 1mM)	NP40-soluble protein abundance (concentration: 2mM)	NP40-soluble protein abundance (concentration: 4mM)	NP40-soluble protein abundance (concentration: 6mM)	NP40-soluble protein abundance (concentration: 8mM)	NP40-soluble protein abundance (concentration: 10mM)
UniProt P62879	0.985 ± 0.022	0.954 ± 0.054	0.984 ± 0.018	1.01 ± 0.043	1.02 ± 0.036	0.964 ± 0.04
UniProt Q03001 and related entries	1.01 ± 0.027	0.951 ± 0.055	1.02 ± 0.026	1 ± 0.05	1 ± 0.084	1.04 ± 0.082
RPP38 (UniProt P78345)	0.925 ± 0.042	1 ± 0.054	1.01 ± 0.044	1.01 ± 0.078	1.01 ± 0.086	1.01 ± 0.031
UniProt P68104 and related entries	0.977 ± 0.012	0.95 ± 0.021	0.95 ± 0.053	1.01 ± 0.022	1 ± 0.033	0.985 ± 0.02
UniProt P62857	0.941 ± 0.041	0.993 ± 0.078	0.919 ± 0.069	0.837 ± 0.071	0.74 ± 0.057	0.847 ± 0.092
FKBP3 (UniProt Q00688)	1.06 ± 0.047	1.122 ± 0.0017	1.02 ± 0.052	1.05 ± 0.055	1.01 ± 0.028	1.09 ± 0.097
REEP5 (UniProt Q00765)	1.02 ± 0.034	1.04 ± 0.032	0.954 ± 0.043	0.99 ± 0.051	0.968 ± 0.046	0.969 ± 0.076
RAB4B (UniProt P61018)	0.942 ± 0.027	0.918 ± 0.038	0.996 ± 0.014	1.02 ± 0.034	1.02 ± 0.081	1.02 ± 0.023
UniProt Q04724 and related entries	0.971 ± 0.024	1.04 ± 0.053	1.02 ± 0.035	0.982 ± 0.051	0.9569 ± 0.0015	0.964 ± 0.023
FOXK1 (UniProt P85037)	0.999 ± 0.044	1.06 ± 0.086	1.01 ± 0.014	0.987 ± 0.015	0.9378 ± 0.0057	1.01 ± 0.02
UniProt P56181 and related entries	1 ± 0.064	1.06 ± 0.012	0.986 ± 0.06	0.971 ± 0.083	0.931 ± 0.066	0.968 ± 0.066
UniProt P55809 and related entries	1.06 ± 0.016	1.03 ± 0.017	1.04 ± 0.023	1.02 ± 0.027	1.02 ± 0.038	1.01 ± 0.04
TMEM33 (UniProt P57088)	0.962 ± 0.042	0.925 ± 0.031	0.989 ± 0.066	1.09 ± 0.11	1.15 ± 0.097	1.1 ± 0.079
UniProt P68543 and related entries	1.006 ± 0.0023	1.11 ± 0.16	0.9762 ± 0.0066	0.979 ± 0.012	0.9586 ± 0.0047	0.971 ± 0.025
SP4 (UniProt Q02446)	1.02 ± 0.03	1.04 ± 0.047	0.999 ± 0.014	1.01 ± 0.017	1.01 ± 0.054	1.03 ± 0.032
ACTR3 (UniProt P61158)	1.01 ± 0.039	0.916 ± 0.11	1.003 ± 0.0062	0.96 ± 0.031	1.02 ± 0.04	0.95 ± 0.031
UniProt P56381	0.912 ± 0.049	1.03 ± 0.18	0.925 ± 0.053	1.1 ± 0.12	1.09 ± 0.1	1.15 ± 0.19
TMSB4X (UniProt P62328)	1.07 ± 0.056	0.999 ± 0.08	1 ± 0.073	0.935 ± 0.14	0.843 ± 0.083	0.905 ± 0.12
RPL10A (UniProt P62906)	0.95 ± 0.051	0.903 ± 0.067	0.87 ± 0.073	0.82 ± 0.029	0.719 ± 0.045	0.787 ± 0.095
AP1S2 (UniProt P56377)	0.994 ± 0.054	0.93 ± 0.093	0.979 ± 0.073	0.961 ± 0.07	0.977 ± 0.061	0.922 ± 0.073

Target	NP40-soluble protein abundance (concentration: 1mM)	NP40-soluble protein abundance (concentration: 2mM)	NP40-soluble protein abundance (concentration: 4mM)	NP40-soluble protein abundance (concentration: 6mM)	NP40-soluble protein abundance (concentration: 8mM)	NP40-soluble protein abundance (concentration: 10mM)
CRYZ (UniProt Q08257)	0.958 ± 0.0032	0.91 ± 0.063	0.971 ± 0.033	1.03 ± 0.073	1.05 ± 0.04	1.03 ± 0.024
EEFSEC (UniProt P57772)	0.988 ± 0.024	0.969 ± 0.027	0.993 ± 0.046	1.029 ± 0.0068	1.04 ± 0.041	1.03 ± 0.024
NOP14 (UniProt P78316)	1 ± 0.011	1.04 ± 0.053	0.984 ± 0.048	0.961 ± 0.013	0.931 ± 0.012	0.973 ± 0.014
UniProt P60891	0.815 ± 0.051	0.775 ± 0.07	0.79 ± 0.088	0.779 ± 0.039	0.795 ± 0.074	0.783 ± 0.14
UniProt P61129	1.03 ± 0.058	1.06 ± 0.02	0.992 ± 0.096	0.992 ± 0.02	1.01 ± 0.06	1 ± 0.11
CDK5 (UniProt Q00535)	0.974 ± 0.033	0.946 ± 0.053	0.962 ± 0.013	0.961 ± 0.016	0.965 ± 0.034	0.954 ± 0.021
UniProt P98155 and related entries	1.23 ± 0.11	1.059 ± 0.0093	1.05 ± 0.0055	1.02 ± 0.034	0.977 ± 0.014	1 ± 0.025
UniProt Q02750	1.028 ± 0.0098	0.977 ± 0.038	0.966 ± 0.037	1.08 ± 0.051	1.05 ± 0.093	1.08 ± 0.052
UniProt P80217 and related entries	1 ± 0.033	1.02 ± 0.026	0.989 ± 0.023	0.983 ± 0.066	0.945 ± 0.037	1 ± 0.046
MRPS9 (UniProt P82933)	0.984 ± 0.073	0.99 ± 0.079	0.966 ± 0.14	0.971 ± 0.14	0.945 ± 0.13	0.952 ± 0.17
NOTCH2 (UniProt Q04721)	1.021 ± 0.0071	1.06 ± 0.055	1.02 ± 0.018	0.9946 ± 0.0071	0.973 ± 0.034	0.975 ± 0.023
UniProt P62244	0.919 ± 0.062	0.84 ± 0.11	0.857 ± 0.1	0.883 ± 0.068	0.835 ± 0.076	0.855 ± 0.094
MRPS5 (UniProt P82675)	0.962 ± 0.077	0.948 ± 0.087	0.943 ± 0.13	0.914 ± 0.14	0.915 ± 0.13	0.936 ± 0.2
XPC (UniProt Q01831)	1.03 ± 0.026	1.04 ± 0.033	1.05 ± 0.013	1.03 ± 0.045	1.03 ± 0.015	1.06 ± 0.013
UniProt Q04727 and related entries	1 ± 0.02	1.01 ± 0.012	0.9614 ± 0.0064	0.9512 ± 0.0039	0.908 ± 0.028	0.948 ± 0.021
UniProt Q08170	0.997 ± 0.04	0.969 ± 0.033	0.869 ± 0.059	0.799 ± 0.072	0.781 ± 0.091	0.762 ± 0.13
PAFAH1B2 (UniProt P68402)	0.939 ± 0.035	0.958 ± 0.051	0.944 ± 0.064	1.04 ± 0.14	1 ± 0.17	1.05 ± 0.2
UniProt P62495	0.947 ± 0.026	0.85 ± 0.09	0.895 ± 0.018	0.914 ± 0.033	0.94 ± 0.041	0.859 ± 0.014
UniProt P63000 and related entries	0.958 ± 0.038	0.929 ± 0.088	0.901 ± 0.085	0.945 ± 0.047	0.942 ± 0.021	0.919 ± 0.047
UniProt P82970	0.98 ± 0.036	1.08 ± 0.11	0.933 ± 0.045	0.958 ± 0.026	0.892 ± 0.042	0.92 ± 0.083

Record cards, from the list above:
SP4 (UniProt Q02446) reads NP40-soluble protein abundance (concentration: 1mM): 1.02 ± 0.03; NP40-soluble protein abundance (concentration: 2mM): 1.04 ± 0.047; NP40-soluble protein abundance (concentration: 4mM): 0.999 ± 0.014; NP40-soluble protein abundance (concentration: 6mM): 1.01 ± 0.017; NP40-soluble protein abundance (concentration: 8mM): 1.01 ± 0.054; NP40-soluble protein abundance (concentration: 10mM): 1.03 ± 0.032
UniProt Q04727 and related entries reads NP40-soluble protein abundance (concentration: 1mM): 1 ± 0.02; NP40-soluble protein abundance (concentration: 2mM): 1.01 ± 0.012; NP40-soluble protein abundance (concentration: 4mM): 0.9614 ± 0.0064; NP40-soluble protein abundance (concentration: 6mM): 0.9512 ± 0.0039; NP40-soluble protein abundance (concentration: 8mM): 0.908 ± 0.028; NP40-soluble protein abundance (concentration: 10mM): 0.948 ± 0.021

Additional records follow:

Target	NP40-soluble protein abundance (concentration: 1mM)	NP40-soluble protein abundance (concentration: 2mM)	NP40-soluble protein abundance (concentration: 4mM)	NP40-soluble protein abundance (concentration: 6mM)	NP40-soluble protein abundance (concentration: 8mM)	NP40-soluble protein abundance (concentration: 10mM)
UniProt Q02078-2|Q02078-4|Q02078-6|Q02078-5	1.0199 ± 0.0007	1.03 ± 0.017	1.023 ± 0.0072	0.98 ± 0.014	0.9784 ± 0.0097	0.98 ± 0.053
UniProt P63272	0.973 ± 0.013	0.982 ± 0.029	0.981 ± 0.029	1.02 ± 0.037	1.02 ± 0.012	1.01 ± 0.044
S100A10 (UniProt P60903)	1.02 ± 0.038	1.05 ± 0.073	1 ± 0.08	0.96 ± 0.045	0.961 ± 0.061	0.978 ± 0.12
GBE1 (UniProt Q04446)	0.966 ± 0.039	0.918 ± 0.043	0.956 ± 0.011	0.956 ± 0.046	0.955 ± 0.044	0.905 ± 0.03
UniProt P61966	1.02 ± 0.026	1.07 ± 0.095	1.06 ± 0.072	1.05 ± 0.051	1.06 ± 0.046	1.05 ± 0.078
UniProt P63146	1.01 ± 0.02	1.017 ± 0.0041	1.012 ± 0.0021	0.9736 ± 0.0039	1.02 ± 0.028	1.018 ± 0.0042
LRP1 (UniProt Q07954)	0.954 ± 0.027	1.03 ± 0.068	0.979 ± 0.036	0.97 ± 0.039	0.96 ± 0.013	0.996 ± 0.042
GMFB (UniProt P60983)	1.02 ± 0.035	1.06 ± 0.037	1.03 ± 0.036	1.01 ± 0.042	1.04 ± 0.045	0.985 ± 0.075
UniProt P78346 and related entries	1.03 ± 0.054	0.956 ± 0.082	1.08 ± 0.094	1.01 ± 0.016	1.1 ± 0.081	1.02 ± 0.055
YBEY (UniProt P58557)	1.03 ± 0.048	1.03 ± 0.018	1.03 ± 0.012	1.03 ± 0.011	0.9963 ± 0.0083	1.02 ± 0.018
UniProt P61106	1.05 ± 0.033	1.03 ± 0.051	1.04 ± 0.04	1.05 ± 0.02	1.05 ± 0.02	1.054 ± 0.0088
OGDH (UniProt Q02218)	1.01 ± 0.094	0.994 ± 0.12	1.02 ± 0.086	0.999 ± 0.1	1.01 ± 0.07	1.02 ± 0.1
UniProt Q02224 and related entries	0.95 ± 0.033	0.958 ± 0.029	0.902 ± 0.04	0.975 ± 0.028	0.938 ± 0.061	0.932 ± 0.024
UniProt P83916	1.05 ± 0.018	1.08 ± 0.03	1.02 ± 0.013	1.03 ± 0.014	1.05 ± 0.028	1.05 ± 0.027
UniProt P56385	0.875 ± 0.046	1.02 ± 0.052	0.803 ± 0.071	0.865 ± 0.059	0.743 ± 0.03	0.835 ± 0.057
UniProt Q03933 and related entries	1.01 ± 0.03	1.01 ± 0.072	1.01 ± 0.049	0.99 ± 0.017	0.974 ± 0.059	0.981 ± 0.036
UniProt P84022	0.996 ± 0.022	1.04 ± 0.037	1.03 ± 0.029	1.09 ± 0.026	1.05 ± 0.021	1.04 ± 0.055
UniProt P78310 and related entries	1.02 ± 0.032	1.06 ± 0.041	1.02 ± 0.047	0.986 ± 0.033	0.983 ± 0.012	1 ± 0.071
UniProt P62899	0.996 ± 0.094	0.981 ± 0.05	0.968 ± 0.098	0.974 ± 0.037	0.907 ± 0.045	1.04 ± 0.1
UniProt P55884 and related entries	0.991 ± 0.022	0.94 ± 0.06	1.05 ± 0.098	1.16 ± 0.043	1.23 ± 0.046	1.28 ± 0.15
